Results deposited as PubChem BioAssay AID1224830 (NIAID, 2016).
Screen: 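Genes whose knock-down alters the TNF-alpha reporter response to LPS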 (primary screen). System: human THP-1 monocytic leukaemia cells, TNF dual-luciferase reporter clone, PMA-differentiated to macrophage-like cells. Knock-down reagent: siRNA pool against human genes, 50 nM. Time to read-out: LPS for 4 h, given about 3 days after siRNA transfection. Challenge: bacterial LPS (TLR4 ligand), 10 ng/ml. Detection: 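TNF firefly reporter luminescence divided by renilla, normalised to the plate median, then turned into a robust z-score for each replicate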. Scale: TNF reporter robust z-score: higher = stronger TNF reporter response to LPS. Rule for the call: 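Each well counts as active if its z-score is over 2.8 or under -1.5; controls are left without a call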.
Shown is one part, drawn at random, of about 18,000 reagents tested. Over the whole deposit, about 2,900 (16%) were called active. 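Calls are made per well; low scores hint the gene aids the LPS response, high scores that it dampens it.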 Unmarked entries are inactive. Repeated entries: four replicate wells of each siRNA pool.

Target gene,TNF reporter robust z-score
FZD3,2.43
FZD3,1.8
FZD3,2.38
FZD3,2.2
ABHD16B,1.74
ABHD16B,1.28
ABHD16B,0.53
ABHD16B,0.36
HEPN1,-0.74
HEPN1,-0.1
HEPN1,-0.67
HEPN1,0
FAM110D,1.24
FAM110D,0.17
FAM110D,0.38
FAM110D,0.69
PDXDC1,-1.63 (active)
PDXDC1,-1.12
PDXDC1,-1.31
PDXDC1,-1.05
INTS15,-0.34
INTS15,-0.44
INTS15,-0.71
INTS15,0.89
CNBD1,1.06
CNBD1,0.56
CNBD1,0.25
CNBD1,0.72
SECTM1,-0.57
SECTM1,-0.64
SECTM1,-0.66
SECTM1,-0.65
GOLPH3L,-0.88
GOLPH3L,-0.94
GOLPH3L,-0.85
MYL6B,-0.74
MYL6B,-1.36
MYL6B,-1.39
MYL6B,-0.95
ZZZ3,0.28
ZZZ3,-0.01
ZZZ3,-0.09
ZZZ3,0.23
TM9SF3,-0.87
TM9SF3,-0.81
TM9SF3,0.08
TM9SF3,0.45
SERPINI2,-1.94 (active)
SERPINI2,-1.08
SERPINI2,-1.15
SERPINI2,-1.18

An excerpt of the results above, for reference:
Target gene,TNF reporter robust z-score
PDXDC1,-1.05
INTS15,-0.34
INTS15,-0.44
INTS15,-0.71
INTS15,0.89
CNBD1,1.06
CNBD1,0.56
CNBD1,0.25
CNBD1,0.72
SECTM1,-0.57
SECTM1,-0.64

The list goes on.
Target gene,TNF reporter robust z-score
ZDHHC17,-1.53 (active)
ZDHHC17,-0.81
ZDHHC17,-0.95
ZDHHC17,-0.86
TUBB7P,-1.17
TUBB7P,-0.67
TUBB7P,-0.76
TUBB7P,-0.48
LMNTD2,0.83
LMNTD2,0.24
LMNTD2,1.19
LMNTD2,-0.26
ASPHD2,0.23
ASPHD2,0.41
ASPHD2,2.42
ASPHD2,1.25
SGK1,-0.75
SGK1,0.11
SGK1,0.18
SGK1,-1.31
PABPC4,-1.09
PABPC4,-0.9
PABPC4,-1.35
PABPC4,-0.57
MMP23B,1.02
MMP23B,0.28
MMP23B,-0.67
MZF1,-0.9
MZF1,0.58
MZF1,-0.24
MZF1,1.15
CCN1,-0.45
CCN1,0.43
CCN1,-1.1
CCN1,-0.28
SIX5,1.72
SIX5,0.71
SIX5,-0.07
SIX5,0.07
FRMD8,-0.36
FRMD8,0.35
FRMD8,0.2
FRMD8,0.42
SLC17A3,-1.64 (active)
SLC17A3,-1.42
SLC17A3,-1.34
SLC17A3,-0.75
SMAD9,-0.24
SMAD9,0.35
SMAD9,-0.72
SMAD9,1.01
CD40LG,0.35
CD40LG,-0.1
CD40LG,-0.98
CD40LG,-1.36
TRIM64,2.44
TRIM64,0.8
TRIM64,0.41
TRIM64,1.29
